Data taken from article PMC11882097.

T1: YFP-NbSGS3 (N. benthamiana) (UniProt X4YFK1)
T1 sequence: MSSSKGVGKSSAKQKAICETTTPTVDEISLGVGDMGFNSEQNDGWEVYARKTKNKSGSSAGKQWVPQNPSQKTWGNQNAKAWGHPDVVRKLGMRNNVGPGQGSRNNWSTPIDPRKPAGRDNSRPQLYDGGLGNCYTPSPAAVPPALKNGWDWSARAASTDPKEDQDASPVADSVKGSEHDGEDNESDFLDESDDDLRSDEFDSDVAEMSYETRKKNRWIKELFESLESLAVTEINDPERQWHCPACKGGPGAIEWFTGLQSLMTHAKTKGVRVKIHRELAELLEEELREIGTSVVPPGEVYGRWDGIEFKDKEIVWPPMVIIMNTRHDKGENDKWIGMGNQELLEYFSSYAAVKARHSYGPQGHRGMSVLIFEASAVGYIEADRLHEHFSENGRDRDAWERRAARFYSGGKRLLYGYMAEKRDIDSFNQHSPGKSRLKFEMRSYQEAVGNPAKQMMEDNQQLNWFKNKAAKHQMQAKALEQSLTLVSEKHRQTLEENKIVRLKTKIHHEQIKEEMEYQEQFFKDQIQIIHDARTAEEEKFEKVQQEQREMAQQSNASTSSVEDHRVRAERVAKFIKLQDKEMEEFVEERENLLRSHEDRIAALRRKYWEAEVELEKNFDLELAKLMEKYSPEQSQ

T2: NbSGS3-Y^N (N. benthamiana) (UniProt X4YFK1)
T2 sequence: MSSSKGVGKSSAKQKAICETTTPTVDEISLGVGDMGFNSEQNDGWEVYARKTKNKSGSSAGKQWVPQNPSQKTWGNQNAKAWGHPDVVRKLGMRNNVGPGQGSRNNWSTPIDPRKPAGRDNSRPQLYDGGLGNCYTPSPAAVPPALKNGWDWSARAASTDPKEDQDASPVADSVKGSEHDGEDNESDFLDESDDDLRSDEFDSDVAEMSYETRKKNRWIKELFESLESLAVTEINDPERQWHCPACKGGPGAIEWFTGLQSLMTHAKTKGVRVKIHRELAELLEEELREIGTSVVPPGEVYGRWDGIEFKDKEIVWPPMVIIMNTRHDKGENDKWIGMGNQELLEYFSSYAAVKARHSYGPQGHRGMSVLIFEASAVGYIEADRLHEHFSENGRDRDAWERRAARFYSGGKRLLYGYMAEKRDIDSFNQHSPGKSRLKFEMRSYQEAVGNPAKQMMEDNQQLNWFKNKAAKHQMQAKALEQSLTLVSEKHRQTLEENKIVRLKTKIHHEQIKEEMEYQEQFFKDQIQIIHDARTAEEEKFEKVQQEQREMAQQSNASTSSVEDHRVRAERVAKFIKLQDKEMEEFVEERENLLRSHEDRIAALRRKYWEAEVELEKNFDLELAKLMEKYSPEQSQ


Tests used:
[1] = target: T1, YFP-NbSGS3 (N. benthamiana); experiment: pull-down; YFP-NbSGS3 from N. benthamiana leaves precipitated on GFP-Trap beads; purified GST-p20 or GST added, 2 h at 4 °C; immunoblot; only the binder purified
[2] = target: T2, NbSGS3-Y^N (N. benthamiana); experiment: split reporter; BiFC of YN and YC fusions co-agroinfiltrated 1:1 into N. benthamiana leaves; YFP signal by confocal microscopy at 48-72 hpi
[3] = target: p20-YFP-Flag (citrus tristeza virus (isolate N21)); experiment: co-IP; total protein of agroinfiltrated N. benthamiana leaves; anti-Flag M2 affinity gel, 2-4 h at 4 °C; 25 mM Tris pH 7.5, 150 mM NaCl, 0.1% NP40; immunoblot
[4] = target: Y^C-NbATG8f (N. benthamiana); experiment: split reporter; BiFC of YN and YC fusions co-agroinfiltrated 1:1 into N. benthamiana leaves; YFP signal by confocal microscopy at 48-72 hpi

Molecule | binding [2] | further results
His-GST-p20 (citrus tristeza virus (isolate N21)) |  | binding [1]: binds
p20^mAIM1-Y^C (citrus tristeza virus (isolate N21)) | binds | 
p20^mAIM2-Y^C (citrus tristeza virus (isolate N21)) | binds | 
p20^mAIM3-Y^C (citrus tristeza virus (isolate N21)) | binds | 
p20^mAIM4-Y^C (citrus tristeza virus (isolate N21)) | binds | 
p20^mAIM5-Y^C (citrus tristeza virus (isolate N21)) | binds | 
NbSGS3-CFP-HA (protein, UniProt X4YFK1 1-635) MSSSKGVGKSSAKQKAICETTTPTVDEISLGVGDMGFNSEQNDGWEVYARKTKNKSGSSAGKQWVPQNPSQKTWGNQNAKAWGHPDVVRKLGMRNNVGPGQGSRNNWSTPIDPRKPAGRDNSRPQLYDGGLGNCYTPSPAAVPPALKNGWDWSARAASTDPKEDQDASPVADSVKGSEHDGEDNESDFLDESDDDLRSDEFDSDVAEMSYETRKKNRWIKELFESLESLAVTEINDPERQWHCPACKGGPGAIEWFTGLQSLMTHAKTKGVRVKIHRELAELLEEELREIGTSVVPPGEVYGRWDGIEFKDKEIVWPPMVIIMNTRHDKGENDKWIGMGNQELLEYFSSYAAVKARHSYGPQGHRGMSVLIFEASAVGYIEADRLHEHFSENGRDRDAWERRAARFYSGGKRLLYGYMAEKRDIDSFNQHSPGKSRLKFEMRSYQEAVGNPAKQMMEDNQQLNWFKNKAAKHQMQAKALEQSLTLVSEKHRQTLEENKIVRLKTKIHHEQIKEEMEYQEQFFKDQIQIIHDARTAEEEKFEKVQQEQREMAQQSNASTSSVEDHRVRAERVAKFIKLQDKEMEEFVEERENLLRSHEDRIAALRRKYWEAEVELEKNFDLELAKLMEKYSPEQSQ |  | binding [3]: binds
NbSGS3-Y^N (protein, UniProt X4YFK1 1-635) MSSSKGVGKSSAKQKAICETTTPTVDEISLGVGDMGFNSEQNDGWEVYARKTKNKSGSSAGKQWVPQNPSQKTWGNQNAKAWGHPDVVRKLGMRNNVGPGQGSRNNWSTPIDPRKPAGRDNSRPQLYDGGLGNCYTPSPAAVPPALKNGWDWSARAASTDPKEDQDASPVADSVKGSEHDGEDNESDFLDESDDDLRSDEFDSDVAEMSYETRKKNRWIKELFESLESLAVTEINDPERQWHCPACKGGPGAIEWFTGLQSLMTHAKTKGVRVKIHRELAELLEEELREIGTSVVPPGEVYGRWDGIEFKDKEIVWPPMVIIMNTRHDKGENDKWIGMGNQELLEYFSSYAAVKARHSYGPQGHRGMSVLIFEASAVGYIEADRLHEHFSENGRDRDAWERRAARFYSGGKRLLYGYMAEKRDIDSFNQHSPGKSRLKFEMRSYQEAVGNPAKQMMEDNQQLNWFKNKAAKHQMQAKALEQSLTLVSEKHRQTLEENKIVRLKTKIHHEQIKEEMEYQEQFFKDQIQIIHDARTAEEEKFEKVQQEQREMAQQSNASTSSVEDHRVRAERVAKFIKLQDKEMEEFVEERENLLRSHEDRIAALRRKYWEAEVELEKNFDLELAKLMEKYSPEQSQ |  | binding [4]: no binding

These are yes or no findings as the source states them, for the method shown. In cells and extracts the contact can be indirect. For some assays here: Binding calls can cover weak binding; strength is not graded here. For some assays here: Sequences can lack the tags named with a protein.
